Laboratory results from publication PMC7797683.
These are yes or no findings as the source states them, for the method shown. In cells and extracts the contact can be indirect. Some binding calls cover weakened binding; strength is not graded here.

How the values were obtained:
[1] = molecular target: T1, ARHGEF2 (human (human gastric cancer cell lines)) (UniProt Q92974); experiment: pull-down; pull-down assay of NEK9 and ARHGEF2 (Figure 3D, S1C); bait, tags and conditions not told in the text shown
T1 sequence: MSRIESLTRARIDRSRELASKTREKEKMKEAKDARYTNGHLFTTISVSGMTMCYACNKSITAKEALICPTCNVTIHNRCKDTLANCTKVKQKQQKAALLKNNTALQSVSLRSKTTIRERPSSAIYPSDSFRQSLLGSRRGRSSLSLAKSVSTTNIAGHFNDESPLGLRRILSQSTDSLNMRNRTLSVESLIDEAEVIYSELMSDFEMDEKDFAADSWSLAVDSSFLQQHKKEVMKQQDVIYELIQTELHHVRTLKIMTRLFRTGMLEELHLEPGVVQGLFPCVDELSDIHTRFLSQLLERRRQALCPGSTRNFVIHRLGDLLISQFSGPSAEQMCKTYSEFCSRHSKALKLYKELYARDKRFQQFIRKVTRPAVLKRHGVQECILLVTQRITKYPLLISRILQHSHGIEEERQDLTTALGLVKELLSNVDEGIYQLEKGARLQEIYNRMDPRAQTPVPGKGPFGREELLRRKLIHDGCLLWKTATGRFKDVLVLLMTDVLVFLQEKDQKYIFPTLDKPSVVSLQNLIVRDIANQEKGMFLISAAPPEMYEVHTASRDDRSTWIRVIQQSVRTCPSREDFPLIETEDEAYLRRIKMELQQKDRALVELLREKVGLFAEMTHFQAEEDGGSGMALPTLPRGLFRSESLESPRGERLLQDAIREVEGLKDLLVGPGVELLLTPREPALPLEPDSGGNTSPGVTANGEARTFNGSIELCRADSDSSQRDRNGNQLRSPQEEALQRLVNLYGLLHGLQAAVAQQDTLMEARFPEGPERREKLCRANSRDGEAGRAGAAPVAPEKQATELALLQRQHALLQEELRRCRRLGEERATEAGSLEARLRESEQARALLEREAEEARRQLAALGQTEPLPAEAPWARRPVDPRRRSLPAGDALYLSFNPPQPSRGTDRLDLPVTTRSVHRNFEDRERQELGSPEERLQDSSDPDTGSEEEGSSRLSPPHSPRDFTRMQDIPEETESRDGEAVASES

[2] = molecular target: T1, ARHGEF2 (human (human gastric cancer cell lines)); experiment: co-IP; immunoprecipitation with anti-ARHGEF2 (ab155785), anti-NEK9 (sc-100401) or control IgG on protein A/G-agarose, then western blot

B1: Never in mitosis gene A (NIMA)-related kinase 9 (NEK9) (enzyme, UniProt Q8TD19 1-979)
chain: MSVLGEYERHCDSINSDFGSESGGCGDSSPGPSASQGPRAGGGAAEQEELHYIPIRVLGRGAFGEATLYRRTEDDSLVVWKEVDLTRLSEKERRDALNEIVILALLQHDNIIAYYNHFMDNTTLLIELEYCNGGNLYDKILRQKDKLFEEEMVVWYLFQIVSAVSCIHKAGILHRDIKTLNIFLTKANLIKLGDYGLAKKLNSEYSMAETLVGTPYYMSPELCQGVKYNFKSDIWAVGCVIFELLTLKRTFDATNPLNLCVKIVQGIRAMEVDSSQYSLELIQMVHSCLDQDPEQRPTADELLDRPLLRKRRREMEEKVTLLNAPTKRPRSSTVTEAPIAVVTSRTSEVYVWGGGKSTPQKLDVIKSGCSARQVCAGNTHFAVVTVEKELYTWVNMQGGTKLHGQLGHGDKASYRQPKHVEKLQGKAIRQVSCGDDFTVCVTDEGQLYAFGSDYYGCMGVDKVAGPEVLEPMQLNFFLSNPVEQVSCGDNHVVVLTRNKEVYSWGCGEYGRLGLDSEEDYYTPQKVDVPKALIIVAVQCGCDGTFLLTQSGKVLACGLNEFNKLGLNQCMSGIINHEAYHEVPYTTSFTLAKQLSFYKIRTIAPGKTHTAAIDERGRLLTFGCNKCGQLGVGNYKKRLGINLLGGPLGGKQVIRVSCGDEFTIAATDDNHIFAWGNGGNGRLAMTPTERPHGSDICTSWPRPIFGSLHHVPDLSCRGWHTILIVEKVLNSKTIRSNSSGLSIGTVFQSSSPGGGGGGGGGEEEDSQQESETPDPSGGFRGTMEADRGMEGLISPTEAMGNSNGASSSCPGWLRKELENAEFIPMPDSPSPLSAAFSESEKDTLPYEELQGLKVASEAPLEHKPQVEASSPRLNPAVTCAGKGTPLTPPACACSSLQVEVERLQGLVLKCLAEQQKLQQENLQIFTQLQKLNKKLEGGQQVGMHSKGTQTAKEEMEMDPKPDLDSDSWCLLGTDSCRPSL
binding [1]: binds
binding [2]: binds
